In US20100168037A1 (priority 2002, published 2010):
Some results were stated once for a whole list of compounds, not compound by compound. Where a SMILES comes first, the peptide text is derived from it. [ ]: non-standard residue; d: D form.

By UniProt entry, the sequences of proteins in these tests, tags left out.
UniProt P10844, whole entry, looked up: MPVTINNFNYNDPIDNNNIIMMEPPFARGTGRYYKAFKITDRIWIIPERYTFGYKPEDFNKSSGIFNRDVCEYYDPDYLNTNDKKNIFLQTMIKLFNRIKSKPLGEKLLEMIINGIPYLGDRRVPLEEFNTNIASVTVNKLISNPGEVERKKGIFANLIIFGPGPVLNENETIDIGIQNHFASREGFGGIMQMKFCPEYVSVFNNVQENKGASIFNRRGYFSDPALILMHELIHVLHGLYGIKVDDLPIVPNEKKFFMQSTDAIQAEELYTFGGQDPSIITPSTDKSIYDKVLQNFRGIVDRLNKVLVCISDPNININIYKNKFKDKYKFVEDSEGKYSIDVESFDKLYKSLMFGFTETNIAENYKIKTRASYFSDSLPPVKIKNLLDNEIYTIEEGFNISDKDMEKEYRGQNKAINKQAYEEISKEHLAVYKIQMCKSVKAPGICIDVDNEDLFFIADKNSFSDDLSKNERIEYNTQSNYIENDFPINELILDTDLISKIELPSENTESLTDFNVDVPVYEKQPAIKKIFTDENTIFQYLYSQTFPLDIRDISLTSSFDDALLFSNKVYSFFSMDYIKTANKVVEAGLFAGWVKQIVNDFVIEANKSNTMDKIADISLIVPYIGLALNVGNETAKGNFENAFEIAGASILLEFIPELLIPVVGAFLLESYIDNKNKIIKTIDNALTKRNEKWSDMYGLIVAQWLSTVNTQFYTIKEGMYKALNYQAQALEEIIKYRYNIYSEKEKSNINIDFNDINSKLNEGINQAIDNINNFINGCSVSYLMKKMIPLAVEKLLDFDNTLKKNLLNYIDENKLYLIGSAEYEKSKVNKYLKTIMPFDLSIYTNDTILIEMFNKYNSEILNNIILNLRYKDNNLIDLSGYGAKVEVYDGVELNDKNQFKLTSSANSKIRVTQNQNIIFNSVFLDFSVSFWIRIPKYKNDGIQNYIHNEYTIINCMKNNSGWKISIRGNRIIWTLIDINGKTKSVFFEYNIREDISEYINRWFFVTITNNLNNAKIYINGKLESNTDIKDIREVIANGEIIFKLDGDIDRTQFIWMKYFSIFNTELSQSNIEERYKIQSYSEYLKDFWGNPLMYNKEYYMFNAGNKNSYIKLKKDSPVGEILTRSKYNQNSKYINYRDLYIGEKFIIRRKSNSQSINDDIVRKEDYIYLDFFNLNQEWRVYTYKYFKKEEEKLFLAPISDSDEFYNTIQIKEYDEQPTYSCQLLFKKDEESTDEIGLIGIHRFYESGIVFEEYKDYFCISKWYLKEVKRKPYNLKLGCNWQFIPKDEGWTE
UniProt P0DPI0, whole entry, looked up: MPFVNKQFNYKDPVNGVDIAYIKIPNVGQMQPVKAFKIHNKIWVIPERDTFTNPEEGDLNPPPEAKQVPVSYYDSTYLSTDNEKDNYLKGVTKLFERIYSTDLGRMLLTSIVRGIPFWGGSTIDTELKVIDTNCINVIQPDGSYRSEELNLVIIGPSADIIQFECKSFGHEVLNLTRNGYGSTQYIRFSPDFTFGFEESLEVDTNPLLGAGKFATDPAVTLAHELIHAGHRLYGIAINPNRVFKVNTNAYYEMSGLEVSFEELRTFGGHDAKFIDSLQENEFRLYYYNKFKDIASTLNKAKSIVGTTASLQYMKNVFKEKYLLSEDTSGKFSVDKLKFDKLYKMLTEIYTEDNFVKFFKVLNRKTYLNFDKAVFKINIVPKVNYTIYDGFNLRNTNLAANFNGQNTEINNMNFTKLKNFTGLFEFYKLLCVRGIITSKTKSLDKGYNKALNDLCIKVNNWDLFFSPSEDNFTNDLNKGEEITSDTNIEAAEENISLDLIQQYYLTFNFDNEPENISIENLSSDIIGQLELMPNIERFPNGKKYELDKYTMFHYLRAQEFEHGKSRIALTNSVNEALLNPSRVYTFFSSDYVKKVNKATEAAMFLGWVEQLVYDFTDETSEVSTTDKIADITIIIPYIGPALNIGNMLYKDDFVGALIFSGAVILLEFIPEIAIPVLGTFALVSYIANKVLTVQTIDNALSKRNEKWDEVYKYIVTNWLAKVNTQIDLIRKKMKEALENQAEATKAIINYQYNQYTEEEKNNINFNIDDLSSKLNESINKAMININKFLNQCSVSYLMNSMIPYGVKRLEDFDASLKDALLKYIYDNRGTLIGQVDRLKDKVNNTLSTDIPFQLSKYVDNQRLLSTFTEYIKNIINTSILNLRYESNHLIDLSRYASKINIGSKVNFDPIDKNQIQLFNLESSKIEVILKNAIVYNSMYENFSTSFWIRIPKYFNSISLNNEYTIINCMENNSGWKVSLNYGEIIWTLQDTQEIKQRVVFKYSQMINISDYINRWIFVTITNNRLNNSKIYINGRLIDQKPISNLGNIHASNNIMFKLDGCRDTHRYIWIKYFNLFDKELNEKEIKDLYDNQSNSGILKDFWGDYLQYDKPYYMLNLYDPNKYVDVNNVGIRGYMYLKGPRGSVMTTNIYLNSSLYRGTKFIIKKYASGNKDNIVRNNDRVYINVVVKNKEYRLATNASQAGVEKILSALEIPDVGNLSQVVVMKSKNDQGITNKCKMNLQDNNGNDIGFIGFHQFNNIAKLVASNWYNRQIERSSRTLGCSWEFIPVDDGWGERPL

What was measured:
Assay type in all cases: binding
RCA60 = RCA60 (Ricinus communis, UniProt P02879); settings: read-out: Estimated Kd
BoNT/B = BoNT/B (Clostridium botulinum, UniProt P10844); settings: for Kd: read-out: Estimated Kd
BoNT/A = BoNT/A (Clostridium botulinum, UniProt P0DPI0); settings: for Kd: read-out: Estimated Kd

| SMILES | Kd (RCA60) | Saturation Concentration (BoNT/B) | Kd (BoNT/B) | Saturation Concentration (BoNT/A) | Kd (BoNT/A) |
| --- | --- | --- | --- | --- | --- |
| C[C@@H](N)C(=O)N[C@H](Cc1ccccc1)C(=O)N[C@H](Cc1ccc(O)cc1)C(=O)N[C@H](C)C(=O)N[C@H](Cc1ccc(O)cc1)C(=O)N[C@H](CCCCN)C(=O)N[C@H](CCCCN)C(=O)N[C@H](CCCCN)C(=O)O [AFYAY] (H-[dA][dF][dY][dA][dY][dK][dK][dK]-OH; C-terminus assumed) | 20 to 25 nM | – | – | – | – |
| C[C@@H](NC(=O)CN)C(=O)N[C@H](Cc1ccccc1)C(=O)N[C@H](Cc1ccccc1)C(=O)N[C@H](Cc1c[nH]c2ccccc12)C(=O)N[C@H](CCCCN)C(=O)N[C@H](CCCCN)C(=O)N[C@H](CCCCN)C(=O)O [GAFFW] (H-G[dA][dF][dF][dW][dK][dK][dK]-OH; C-terminus assumed) | – | 3 to 4 nM | 0.5 to 1 nM | 3 to 4 nM | 0.5 to 1 nM |
| NCCCC[C@@H](NC(=O)[C@@H](CCCCN)NC(=O)[C@@H](CCCCN)NC(=O)[C@@H](Cc1ccc(O)cc1)NC(=O)[C@@H](Cc1c[nH]c2ccccc12)NC(=O)CNC(=O)[C@@H](Cc1ccccc1)NC(=O)CN)C(=O)O [GFGWY] (H-G[dF]G[dW][dY][dK][dK][dK]-OH; C-terminus assumed) | – | 3 to 4 nM | 0.5 to 1 nM | 3 to 4 nM | 0.5 to 1 nM |
| NCCCC[C@@H](NC(=O)[C@@H](CCCCN)NC(=O)[C@@H](CCCCN)NC(=O)[C@@H](Cc1ccccc1)NC(=O)[C@@H](Cc1ccccc1)NC(=O)[C@@H](Cc1ccc(O)cc1)NC(=O)[C@@H](Cc1ccccc1)NC(=O)CN)C(=O)O [GFYFF] (H-G[dF][dY][dF][dF][dK][dK][dK]-OH; C-terminus assumed) | 20 to 25 nM | – | – | – | – |
